Experimental data taken from the supplement of paper PMC11542785.
Structures can show the parent of a compound that is named as a salt. The list shows a part of the results. Most values come without repeats; read them as rough.

Tested on: Drosophila melanogaster DPAGT1 (Alg7) RNAi eye model
Test: eye size Z-score vs DMSO-treated DPAGT1 model flies; higher = larger eye (suppression of DPAGT1 phenotype)
Settings: 5 uM

Q: For OC[C@H]1O[C@@H](n2cnc3cncnc32)[C@H](O)[C@@H]1O [Nebularine], which “eye size Z-score” value is on record?
A: -0.4

Q: How did the “eye size Z-score” value turn out when CC1CS(=O)(=O)CCN1/N=C/c1ccc([N+](=O)[O-])o1 (stereo not given) [Nifurtimox] was run?
A: -0.95

Q: For COc1ccc(C(=O)c2ccc(C)cc2)c(O)c1 [Mexenone], which “eye size Z-score” value is on record?
A: -0.56

Q: For CN1CC2c3ccccc3Oc3ccc(Cl)cc3C2C1 (stereo not given) [Asenapine maleate], which “eye size Z-score” value is on record?
A: -0.56

Q: For COc1cc(C(=O)NC2CCCNC2)cc(OC)c1OC (stereo not given) [Troxipide], which “eye size Z-score” value is on record?
A: 0.81

Q: With C[C@]12CC[C@@H]3c4ccc(O)cc4CC[C@H]3[C@@H]1CCC2=O [Estrone] as the molecule, how does the “eye size Z-score” value read?
A: -0.44

Q: How did the “eye size Z-score” value turn out when CN(C)[C@@H]1C(O)=C(C(N)=O)C(=O)[C@@]2(O)C(O)=C3C(=O)c4c(O)ccc(Cl)c4[C@@](C)(O)[C@H]3C[C@@H]12 [Chlortetracycline hydrochloride] was run?
A: 1.02

Q: Which “eye size Z-score” value does the source give for CC(=O)N(CC(C)C(=O)O)c1c(I)cc(I)c(N)c1I (stereo not given) [Iocetamic acid] here?
A: -0.98

Q: With O=C(O)CCC(=O)Nc1ccc(S(=O)(=O)Nc2nccs2)cc1 [Succinylsulfathiazole] as the molecule, how does the “eye size Z-score” value read?
A: 0.53

Q: For COc1cnc(NS(=O)(=O)c2ccc(N)cc2)nc1 [Sulfameter], which “eye size Z-score” value is on record?
A: 0.15

Q: Cc1cccc(CN2CCN(C(c3ccccc3)c3ccc(Cl)cc3)CC2)c1 (stereo not given) [Meclozine dihydrochloride] was tested. Which “eye size Z-score” value did it give?
A: -0.06

Q: For CCCCC(C)(O)C/C=C/[C@H]1[C@H](O)CC(=O)[C@@H]1CCCCCCC(=O)OC (mixture of isomers) [Misoprostol], which “eye size Z-score” value is on record?
A: -1.2

Q: For CNCCC(Oc1ccccc1OC)c1ccccc1 (stereo not given) [Nisoxetine hydrochloride], which “eye size Z-score” value is on record?
A: -1.09

Q: How did the “eye size Z-score” value turn out when COc1ccccc1O [Guaiacol] was run?
A: 0.21

Q: With CCOC(=O)C1=C[C@]2(CC)CCCN3CCc4c(n1c1ccccc41)[C@@H]32 [Vinpocetine] as the molecule, how does the “eye size Z-score” value read?
A: 0.5

Q: COc1ccc2cc([C@@H](C)C(=O)O)ccc2c1 [(R) Naproxen sodium salt] was tested. Which “eye size Z-score” value did it give?
A: -0.18

Q: How did the “eye size Z-score” value turn out when Nc1nc(=O)c2c([nH]1)NC[C@@H](CNc1ccc(C(=O)N[C@@H](CCC(=O)O)C(=O)O)cc1)N2C=O [Folinic acid calcium salt] was run?
A: -0.54

Q: How did the “eye size Z-score” value turn out when CC1(C)NC(=O)N(c2ccc([N+](=O)[O-])c(C(F)(F)F)c2)C1=O [Nilutamide] was run?
A: 0.12

Q: For CCCCC(CC)CNC(=N)NC(=N)NCCCCCCNC(=N)NC(=N)NCC(CC)CCCC (stereo not given) [Alexidine dihydrochloride], which “eye size Z-score” value is on record?
A: 0.02

Q: For COC(=O)[C@@H]1[C@H]2C[C@H]3c4[nH]c5ccccc5c4CCN3C[C@@H]2CC[C@@H]1O [Yohimbine hydrochloride], which “eye size Z-score” value is on record?
A: 0.06

Q: For O=C1CCc2cc(OCCCCc3nnnn3C3CCCCC3)ccc2N1 [Cilostazol], which “eye size Z-score” value is on record?
A: -0.39

Q: Which “eye size Z-score” value does the source give for CCS(=O)(=O)CCn1c([N+](=O)[O-])cnc1C [Tinidazole] here?
A: 0.1

Q: How did the “eye size Z-score” value turn out when CCCCOc1cc(C(=O)NCCN(CC)CC)c2ccccc2n1 [Dibucaine] was run?
A: 0.63

Q: How did the “eye size Z-score” value turn out when O=P(O)(O)C(Cl)(Cl)P(=O)(O)O [Clodronate disodium] was run?
A: 0.82

Q: How did the “eye size Z-score” value turn out when C/C(=C(\CCOC(=O)c1ccccc1)SS/C(CCOC(=O)c1ccccc1)=C(/C)N(C=O)Cc1cnc(C)nc1N)N(C=O)Cc1cnc(C)nc1N [Bisbentiamine] was run?
A: -0.14

Q: With CCC1=C(C)CN(C(=O)NCCc2ccc(S(=O)(=O)NC(=O)N[C@H]3CC[C@H](C)CC3)cc2)C1=O [Glimepiride] as the molecule, how does the “eye size Z-score” value read?
A: 1.05

Q: How did the “eye size Z-score” value turn out when OCc1cc(C(O)CNCCCCCCOCCCCc2ccccc2)ccc1O (stereo not given) [Salmeterol] was run?
A: 0.5

Q: With CC(=O)OCC(=O)[C@@]12N=C(C)O[C@@H]1C[C@H]1[C@@H]3CCC4=CC(=O)C=C[C@]4(C)[C@H]3[C@@H](O)C[C@@]12C [Deflazacort] as the molecule, how does the “eye size Z-score” value read?
A: 0.15

Q: Which “eye size Z-score” value does the source give for O=C(O)Cc1sc(-c2ccccc2)nc1-c1ccc(Cl)cc1 [Fentiazac] here?
A: 1.32

Q: How did the “eye size Z-score” value turn out when CNCCC(Oc1ccc(C(F)(F)F)cc1)c1ccccc1 (stereo not given) [Fluoxetine hydrochloride] was run?
A: 0.5

Q: For Cc1nc2n(c(=O)c1CCN1CCC(c3noc4cc(F)ccc34)CC1)CCCC2 [Risperidone], which “eye size Z-score” value is on record?
A: 1.29

Q: How did the “eye size Z-score” value turn out when CC(=O)Nc1ccc(CC(=O)O)cc1 [Actarit] was run?
A: 0.31

Q: With C[C@@H](CN1CC(=O)NC(=O)C1)N1CC(=O)NC(=O)C1 [Dexrazoxane hydrochloride] as the molecule, how does the “eye size Z-score” value read?
A: -0.46

Q: How did the “eye size Z-score” value turn out when CC(=O)N[C@H]1[C@H]([C@H](O)[C@H](O)CO)OC(C(=O)O)=C[C@@H]1NC(=N)N [Zanamivir] was run?
A: -0.49

Q: Which “eye size Z-score” value does the source give for CCN1CC(CCN2CCOCC2)C(c2ccccc2)(c2ccccc2)C1=O (stereo not given) [Doxapram hydrochloride] here?
A: 0.52

Q: With O=C(c1cc(O)c(O)c(O)c1)c1ccc(O)c(O)c1O [Exifone] as the molecule, how does the “eye size Z-score” value read?
A: 0.56

Q: With CCCCNC(=O)NS(=O)(=O)c1ccc(C)cc1 [Tolbutamide] as the molecule, how does the “eye size Z-score” value read?
A: 1.82

Q: For O=C(O)c1cc(-c2ccc(F)cc2F)ccc1O [Diflunisal], which “eye size Z-score” value is on record?
A: 0.78

Q: How did the “eye size Z-score” value turn out when CC(=O)[C@H]1CC[C@H]2[C@@H]3C[C@H](C)C4=CC(=O)CC[C@]4(C)[C@H]3[C@@H](O)C[C@]12C [Medrysone] was run?
A: 0.72

Q: How did the “eye size Z-score” value turn out when CCOC(=O)OC(C)OC1=C(C(=O)Nc2ccccn2)N(C)S(=O)(=O)c2ccccc21 (stereo not given) [Ampiroxicam] was run?
A: -0.17

Q: With CCOc1ccccc1OCCN[C@H](C)Cc1ccc(OC)c(S(N)(=O)=O)c1 [(R)-Tamsulosin hydrochloride] as the molecule, how does the “eye size Z-score” value read?
A: 0.46

Q: With CCn1cc(C(=O)O)c(=O)c2cnc(N3CCCC3)nc21 [Piromidic acid] as the molecule, how does the “eye size Z-score” value read?
A: -0.61

Q: With O=S(=O)(O)CCS [Coenzyme M] as the molecule, how does the “eye size Z-score” value read?
A: 0.14

Q: With CC(C)Nc1ncccn1 [Isaxonine] as the molecule, how does the “eye size Z-score” value read?
A: 0.18

Q: Which “eye size Z-score” value does the source give for CC(C)(C)NC[C@H](O)c1ccc(O)c(CO)c1 [Levalbuterol hydrochloride] here?
A: -0.92

Q: Which “eye size Z-score” value does the source give for O=C1c2ccccc2S(=O)(=O)N1CCCCN1CCN(c2ncccn2)CC1 [Ipsapirone] here?
A: -0.03

Q: Which “eye size Z-score” value does the source give for Cn1c([N+](=O)[O-])cnc1COC(N)=O [Ronidazole] here?
A: 0.04

Q: How did the “eye size Z-score” value turn out when COc1ccc(C(=O)NCc2ccc(OCCN(C)C)cc2)cc1OC [Itopride] was run?
A: 0.01

Q: With N[C@@H](C(=O)N[C@@H]1C(=O)N2C(C(=O)O)=C(Cl)CS[C@H]12)c1ccccc1 [Cefaclor hydrate] as the molecule, how does the “eye size Z-score” value read?
A: 0.28

Q: How did the “eye size Z-score” value turn out when CC(Oc1ccccc1)C(=O)N[C@@H]1C(=O)N2[C@@H]1SC(C)(C)[C@@H]2C(=O)O (stereo not given in full) [Phenethicillin potassium salt] was run?
A: 0.83
